Publication PMC12670160, “A drug-repurposing screen of FDA- and EMA-approved drugs identifies two NF-κB inhibitors active against eumycetoma” (Journal of Antimicrobial Chemotherapy, 2025)
Structures can show the parent of a compound that is named as a salt. In all, about 5,300 compounds went through this assay and about 130 (2.5%) showed an effect of 50% or more. The list shows a part of the results.

Tested on: M. mycetomatis strain mm55
Conditions: primary screen, metabolic activity vs growth control; 96 h, 2 µM; inhibitor

In order of rising “% viability” value:
1. Cc1csc2c(N[C@@H](C)CN3CCN(S(=O)(=O)c4ccc(Cl)c(Cl)c4)CC3)ncnc12 [ONC0001129, lpa2 antagonist 1]  45.06%
2. CO[C@@H]1[C@H](N(C)C(=O)c2ccccc2)C[C@H]2O[C@]1(C)n1c3ccccc3c3c4c(c5c6ccccc6n2c5c31)C(=O)NC4 [ONC0003481, pkc412 midostaurin]  56.44%
3. COc1ccc2cc(-c3cc(-c4cc(Cl)cc(Cl)c4)nn3[C@@H](C)c3ccc(C(=O)NCCC(=O)O)cc3)ccc2c1 [ONC0002086, mk 0893]  59.82%
4. Nc1cc(Cl)c(N=C2NCCN2)c(Cl)c1 [ONC0003355, apraclonidine]  59.86%
5. COC(=O)Nc1nc2ccc(C(=O)c3cccs3)cc2[nH]1 [ONC0000832, nocodazole]  65.92%
6. COc1ccccc1OCC(O)CNC(C)C (stereo not shown) [ONC0003655, moprolol]  69.09%
7. NCC(CS(=O)(=O)O)c1ccc(Cl)cc1 (stereo not shown) [ONC0001443, saclofen]  70.24%
8. O=c1[nH]c2cc([N+](=O)[O-])c([N+](=O)[O-])cc2[nH]c1=O [ONC0001451, dnqx]  73.5%
9. CC(=O)NS(=O)(=O)c1ccc(NC(=O)c2ccccc2C(=O)O)cc1 [ONC0003990, phthalylsulfacetamide]  74.66%
10. CC(S)C(=O)NCC(=O)O (stereo not shown) [ONC0005336, tiopronin]  75.05%
11. O=c1cc(N2CCOCC2)nc2c3ccccc3ccn12 [ONC0000183, compound401]  76.29%
12. CC(=O)OC[C@H](N)C(=O)O.Cl [ONC0000420, oacetyllserine hcl]  77.43%
13. CC(=O)c1ccc2c(c1)N(CCCN(C)C)c1ccccc1S2 [ONC0004160, acepromazine maleate]  77.83%
14. COc1cccc(N2CCN(C3=Nc4c(F)cccc4[C@H](CC(=O)O)N3c3cc(C(F)(F)F)ccc3OC)CC2)c1 [ONC0000806, letermovir]  78.78%
15. C=CC(=O)Nc1cc2c(Nc3ccc(F)c(Cl)c3)ncnc2cc1OCCCN1CCOCC1 [ONC0004577, ci1033 canertinib]  79.34%
16. COC(=O)/C=C/c1cc(O)ccc1O [ONC0001421, erbstatinanalog]  83.71%
17. O=C(NCc1ccccc1)c1csc(Nc2ccncn2)n1 [ONC0004852, thiazovivin]  84.03%
18. CC(C)Cn1cnc2c1c(=O)n(C)c(=O)n2C [ONC0003457, isbufylline]  84.25%
19. NC(=O)c1cccc2cn(-c3ccc([C@@H]4CCCNC4)cc3)nc12 [ONC0001051, niraparib]  84.35%
20. O=C(CCn1cnc2c(=O)[nH]cnc21)Nc1ccc(C(=O)O)cc1 [ONC0005387, leteprinim]  88.09%
21. Nc1ccn([C@@H]2C(F)=C(CO)[C@@H](O)[C@H]2O)c(=O)n1 [ONC0005434, rx3117]  88.23%
22. C[C@@H]1CC[C@@]2(OC1)O[C@H]1C[C@H]3[C@@H]4CC=C5C[C@H](O[C@@H]6O[C@@H](CO)[C@@H](O[C@@H]7O[C@@H](C)[C@H](O)[C@@H](O)[C@@H]7O)[C@H](O)[C@H]6O[C@@H]6O[C@@H](C)[C@H](O)[C@@H](O)[C@H]6O)CC[C@]5(C)[C@@H]4CC[C@]3(C)[C@@H]1[C@H]2C [ONC0004349, dioscin collettiside iii]  88.26%
23. C=CCNC(N)=S [ONC0005302, allylthiourea]  88.44%
24. C[C@@H](O)[C@H]1C(=O)N2C(C(=O)O)=C(S[C@@H]3CN[C@H](CNS(N)(=O)=O)C3)[C@H](C)[C@H]12 [ONC0001829, doripenem monohydrate]  88.72%
25. CCCCCCCCCCCCCCCCCCN(CCCCCCCCCCCCCCCCCC)CCCN(CCO)CCO [ONC0003941, avridine]  89.03%
26. COc1ccc(OC)c(C(O)CNC(=O)CN)c1 (stereo not shown) [ONC0002895, midodrine hydrochloride]  90.3%
27. CC[C@@H](C(N)=O)N1CCCC1=O [ONC0004079, levetiracetam]  91.88%
28. O=C(c1ccccc1)C(O)c1ccccc1 (stereo not shown) [ONC0003782, benzoin]  96.78%
29. N#Cc1cccc(-c2c[nH]c3ncnc(N4CCOCC4)c23)c1 [ONC0001009, pf06447475]  99.29%
30. COc1cccc(-c2cc(=O)c3ccccc3o2)c1N [ONC0001348, pd98059]  99.72%
31. CC(=O)NC1[C@@H](O)OC(CO)[C@@H](O)[C@H]1O (stereo partly shown) [ONC0002960, nacetylmannosamine]  104.5%
32. C=CCN1CCc2nc(N)sc2CC1 [ONC0001170, talipexole dihydrochloride]  113%
33. CC1(C)[C@@H]2C[C@H]1[C@@](C)(O)[C@@H](O)C2 [ONC0005321, pinanediol]  118.6%
34. CN1CCN(CCCN2c3ccccc3Sc3ccc(C(F)(F)F)cc32)CC1 [ONC0003239, trifluoperazine hydrochloride]  119.8%
35. CNC(=O)c1cccc(-c2ccc3c(N4CCOC[C@@H]4C)nc(N4CCOC[C@@H]4C)nc3n2)c1 [ONC0005277, vistusertib azd2014]  121.5%
36. CO[C@H]1CC[C@@H](C(=O)c2ccc3nc4c(cc3c2)CCCO4)CC1 [ONC0003582, jnj16259685]  123%
37. COc1cc2c(cc1OC)CN(C(=O)/C=C/c1c(-c3ccccc3)n(C)c3ncccc13)CC2 [ONC0003581, sis3]  130.5%
38. CN(C)CCOC(C)(c1ccccc1)c1ccccn1 (stereo not shown) [ONC0000671, doxylamine succinate]  142.6%
39. O=C(CCc1ccc(O)cc1)c1c(O)cc(O)cc1O [ONC0005262, phloretin]  144.8%
40. CC(C)(C#N)c1cc(Cn2cncn2)cc(C(C)(C)C#N)c1 [ONC0004081, anastrozole]  146%
